1 molecule from article PMC3573112, “Compatibility in the Ustilago maydis–Maize Interaction Requires Inhibition of Host Cysteine Proteases by the Fungal Effector Pit2” (PLoS Pathogens, 2013) can be followed below.

Results are given in words; binding and its absence hold for the method and conditions named. Binding can be weak; no strength is given. Tags and fused reporters may be left off the sequences shown.

For assay [1], the target named is Pit2^mut49–53 without secretion signal, Gal4 binding domain fusion (pGBKT7-Pit2^mut49–53) (Ustilago maydis). Briefly: two-hybrid.
The target of assay [2] is Pit2^Δ49–53 without secretion signal, Gal4 binding domain fusion (Ustilago maydis). Briefly: two-hybrid.

B1: CP2 (corn cysteine protease 2) without signal peptide and prodomain, Gal4 activation domain fusion (pGADT7-CP2) (enzyme, UniProt Q10717 143-360)
chain: LPETKDWREDGIVSPVKNQGHCGSCWTFSTTGALEAAYTQATGKPISLSEQQLVDCGFAFNNFGCNGGLPSQAFEYIKYNGGLDTEESYPYQGVNGICKFKNENVGVKVLDSVNITLGAEDELKDAVGLVRPVSVAFEVITGFRLYKSGVYTSDHCGTTPMDVNHAVLAVGYGVEDGVPYWLIKNSWGADWGDEGYFKMEMGKNMCGVATCASYPIVA
As to B1, the binding entry in assay [1] and in assay [2] was “binds” in each case.
